Source: US20110275643A1, “AROYLQUINOLINE COMPOUNDS” (NATIONAL HEALTH RESEARCH INSTITUTES, priority 2010, published 2011)

Key:
Format in all cases: cell-based
[1] = system: non-small-cell lung carcinoma H460 cells; assay: In vitro cell growth inhibition, methylene blue dye assay, H460 cells; conditions: Homo sapiens, NCI-H460, 72 h, read-out: IC50 on the proliferation of cells, H460
Procedure: (§1) The synthesized compounds 5 to 17 were evaluated for antiproliferative activities against four carcinoma cells, oral epidermoid carcinoma KB cells, non-small-cell lung carcinoma H460 cells, colorectal carcinoma HT29 cells and stomach carcinoma MKN45 cells, as well as the MDR-positive cell lines KB-VIN10, that overexpressed P-gp 170/MDR (Table 1). The controls were compounds 1 and 3.
(§2) Human oral epidermoid carcinoma KB cells, non-small-cell lung carcinoma H460 cells, colorectal carcinoma HT29 cells and stomach carcinoma MKN45 cells were maintained in RMPI-1640 medium supplied with 5% fetal bovine serum (FBS). […] Cells in logarithmic phase were cultured at a density of 5000 cells/mL/well in a 24-well plate. KB-VIN10 cells were cultured in drug-free medium for 3 days prior to use. The cells were exposed to various concentrations of the test drugs for 72 hours. The methylene blue dye assay was used to evaluate the effect of the test compounds on cell growth (Finlay et al., 1984).

[2] = system: colorectal carcinoma HT29 cells; assay: In vitro cell growth inhibition, methylene blue dye assay, HT29 cells; conditions: Homo sapiens, HT-29, 72 h, read-out: IC50 on the proliferation of cells, HT29
Procedure: as §1, §2

[3] = system: stomach carcinoma MKN45 cells; assay: In vitro cell growth inhibition, methylene blue dye assay, MKN45 cells; conditions: Homo sapiens, MKN-45, 72 h, read-out: IC50 on the proliferation of cells, MKN45
Procedure: as §1, §2

[4] = system: oral epidermoid carcinoma KB cells; assay: In vitro cell growth inhibition, methylene blue dye assay, KB cells; conditions: Homo sapiens, 72 h, read-out: IC50 on the proliferation of cells, KB
Procedure: as §1, §2

In the case of `COc1cc2c(c(OC)c1OC)-c1ccc(OC)c(=O)cc1[C@@H](NC(C)=O)CC2` [Compound 3, Colchicine, reference compound], the IC50 [1] is reported as 0.0201 ± 0.003 µM, the IC50 [2] is reported as 0.0132 ± 0.0023 µM and the IC50 [3] is reported as 0.0124 ± 0.002 µM. It also gave an IC50 [4] of 0.012 ± 0.0012 µM.
